A short description of series [1]: peptide synthesis. Conditions: coupling step, TFA salt.
A short description of series [2]: general procedure: Fmoc solid-phase peptide synthesis; Pre-loaded Fmoc-Yaa-Wang resin (0.57 mmol/g); TBTU/DIEA. Particulars: late stage modification step, TFA salt.

Take Boc-Glu(Gly3)-Thia: in series [1], the step yield was 49%. The same measure, in the same setting: then Boc-Glu(Gly5)-Thia, with 86%. As to H-Glu(Gly3)-Thia *TFA, in series [2], the step yield is reported as 94%. Still for that read-out and setting: then H-Glu(Gly5)-Thia *TFA, with 98%.

Values taken from patent publication US20070207946A1 (priority 2001, published 2007).
